PubChem BioAssay AID504444 (National Center for Advancing Translational Sciences (NCATS), 2011)
In all, about 360,000 compounds went through this assay and about 7,500 (2.1%) were called active. The inconclusive results got no clear call from the source; some entries with a clear call stand among them for comparison. The call rests on the fitted dose curve; in most records, active means well fitted inhibition curve with a large enough effect; inconclusive means small, poorly fitted or top-dose-only effect, or effect the other way; inactive means flat fitted curve, though single readings scatter. A potency beside an inconclusive call is a rough fit, not a confirmed value.
Potency means the concentration at half of the fitted maximal effect.

Assay: Nrf2 qHTS screen for inhibitors; further: nearly all actives have a fitted effect of over 60% in size
Conditions: A549 ARE-Fluc reporter, luciferase luminescence, 18-24 h; series mostly up to 46 µM
Method in brief: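 A549 ARE_Fluc cells, 5000/well, 5% FBS OPTI-MEM; compounds in dose-response, 18-24 h at 37 °C/5% CO2; CellTiter-Fluor viability read (Ex 405/Em 525), then BugLite luciferase luminescence = Nrf2 activity.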
For `CCOC(=O)N/N=C\C=C\c1ccc2c(c1)OCO2`, the Potency was inconclusive: 18.4 µM [activator, partial curve]. For `Cc1cc(C(=O)COC(=O)c2cccn2C)c(C)n1Cc1ccco1`, the Potency was inconclusive: 1.46 µM [activator, partial curve]. With `O=C(CCCOc1ccc(Cl)cc1Cl)NNC(=O)c1ccc(NC(=O)c2ccccc2)cc1` the Potency was inconclusive: 5.8 µM [falling, partial curve, poor fit]. With `CCOC(=O)c1cc2c(=O)c3ccccc3oc2nc1C` the Potency was inconclusive: 2.06 µM [activator, full curve]. With `O=C(Nc1ccccc1OC(F)F)c1cc2c(s1)CCC2` the Potency was inconclusive: 5.17 µM [activator, partial curve]. With `COc1ccc(OCC(=O)Nc2nnc(S(=O)(=O)N3CCCCCC3)s2)cc1` the Potency was inconclusive: 5.17 µM [activator, full curve]. In the case of `Cc1ccc(Cn2ccnc2C(=O)Nc2ccccc2)cc1`, the Potency is reported as inconclusive: 13 µM [activator, partial curve]. With `COC(=O)c1ccc(S(=O)(=O)N2CCCN(Cc3cccc(Br)c3F)CC2)n1C` the Potency was inconclusive: 20.6 µM [falling, partial curve, poor fit]. In the case of `O=C(CSc1ncnc2scc(-c3ccccc3)c12)N1CCN(c2ccccc2F)CC1`, the Potency is reported as inconclusive: 29.1 µM [falling, single point]. In the case of `COC(=O)c1ccsc1NC(=O)CSc1nnnn1-c1ccccc1SC`, the Potency is reported as active: 20.6 µM. In the case of `Cc1ccc(/C=N/NC(=O)c2ccco2)s1`, the Potency is reported as inconclusive: 4.11 µM [activator, full curve]. With `COc1ccccc1C(=O)NC(=O)Nc1cccc(Cl)c1` the Potency was inconclusive: 9.2 µM [activator, partial curve]. For `c1ccc(OCc2nc3ccccc3[nH]2)cc1`, the Potency was inconclusive: 6.51 µM [activator, full curve]. For `Cc1c(C(=O)N(Cc2ccccc2)C(C)C)oc2ccc(S(=O)(=O)N3CCOCC3)cc12`, the Potency was inconclusive: 20.6 µM [falling, single point]. In the case of `CCc1cccc(OCC2Cn3c(nc4c3c(=O)[nH]c(=O)n4C)O2)c1` (stereo unspecified), the Potency is reported as inconclusive: 2.59 µM [falling, partial curve]. In the case of `Nc1cccc2c1C(=O)N(CCOc1ccc(F)cc1)C2=O`, the Potency is reported as inconclusive: 18.4 µM [activator, partial curve]. In the case of `CCc1ccc(C2C(C(=O)Nc3ccccc3)=C(C)Nc3c(C(=O)Nc4ccc(C)cc4)cnn32)cc1` (stereo unspecified), the Potency is reported as “inactive”. For `CCc1ccc(S(=O)(=O)c2cn(C)c3cc(N4CCCCC4C)c(F)cc3c2=O)cc1` (stereo unspecified), the Potency was inconclusive: 29.1 µM [falling, single point]. In the case of `CCCc1nnc(NC(=O)c2c(O)c3cccc4c3n(c2=O)CCC4)s1`, the Potency is reported as inconclusive: 6.51 µM [falling, single point]. With `CCOC(=O)Cn1c(=O)oc2cc(S(=O)(=O)N3CCN(c4ccc(Cl)cc4)CC3)ccc21` the Potency was “inactive”. For `Cc1sc(NC(=O)C2=COCCO2)c(C#N)c1C`, the Potency was inconclusive: 18.4 µM [activator, single point]. With `CCCCN1CCC(COC(=O)c2cc(Cl)c(N)c3c2OCCO3)CC1` the Potency was inconclusive: 18.4 µM [activator, partial curve, poor fit]. For `COc1ccc(NC(=O)CN(C)S(=O)(=O)c2ccc(Cl)cc2)cn1`, the Potency was inconclusive: 0.0259 µM [falling, full curve, poor fit]. For `COC(=O)c1ccc(COc2nc(C)cc(C)c2C#N)o1`, the Potency was inconclusive: 2.91 µM [falling, partial curve, poor fit]. With `O=C(Nc1cccc(C(=O)O)c1)Nc1ccccc1Cl` the Potency was inconclusive: 10.3 µM [activator, partial curve]. For `CC(OC(=O)C1CCN(c2ccc(C(F)(F)F)cn2)CC1)C(=O)NC1CCCCC1C` (stereo unspecified), the Potency was inconclusive: 23.1 µM [falling, single point]. With `O=C(Nc1nccs1)c1ccc2ccccc2c1` the Potency was inconclusive: 1.64 µM [activator, full curve]. For `CN(CCC#N)C(=O)CSc1nnc(-c2c[nH]c3ccccc23)o1`, the Potency was inconclusive: 20.6 µM [falling, single point]. With `N#CC1CC(c2ccccc2)=NN1c1ccccc1[N+](=O)[O-]` (stereo unspecified) the Potency was inconclusive: 29.1 µM [activator, single point]. With `COc1ccccc1-c1nnc(Nc2nc3c(OC)cccc3s2)o1` the Potency was inconclusive: 2.59 µM [falling, partial curve]. For `O=C(NCc1cccs1)Nc1ccc2c(c1)OCO2`, the Potency was inconclusive: 20.6 µM [activator, single point]. In the case of `CCOc1ccccc1Nc1nc(N)nc(CSc2nncn2C)n1`, the Potency is reported as inconclusive: 8.2 µM [falling, partial curve, poor fit]. For `CCOC(=O)c1c(C)[nH]c(C(=O)OCC(=O)NCCc2ccc(OCC)c(OCC)c2)c1C`, the Potency was inconclusive: 18.4 µM [falling, partial curve]. In the case of `CC(NC(=O)c1ccc2c(c1)S(=O)(=O)N=C1CCCCCN12)c1ccc(S(N)(=O)=O)cc1` (stereo unspecified), the Potency is reported as inconclusive: 16.4 µM [activator, single point]. For `O=C(O)c1cccc(Nc2ncnc3sccc23)c1`, the Potency was inconclusive: 23.1 µM [activator, single point]. With `Cn1cc(CCC(=O)NCc2cccc(Cl)c2)c2ccccc21` the Potency was “inactive”. In the case of `CC(C)[C@H](NC(=O)N1c2ccccc2NC(=O)[C@@H]1C(C)C)C(=O)N[C@@H](Cc1ccccc1)C(=O)O`, the Potency is reported as inconclusive: 6.51 µM [activator, single point]. In the case of `Cc1ccc2c(c1)cc(C(=O)Nc1ccccc1C)n2C`, the Potency is reported as “inactive”. With `CCC(CO)[n+]1c(C)cc(/C=C2\Sc3ccccc3N2Cc2ccccc2)cc1C` (stereo unspecified) the Potency was active: 14.6 µM. For `Cc1ccc(N2CC(C(=O)Nc3ccc4c(c3)OCO4)CC2=O)cc1` (stereo unspecified), the Potency was inconclusive: 2.06 µM [activator, full curve, poor fit]. For `Cc1ccc(OC(=O)c2ccc(S(=O)(=O)N(C)C)cc2)c(-n2nc3ccccc3n2)c1`, the Potency was inconclusive: 5.8 µM [activator, full curve].
